According to US9133154B2, “Substituted 3-phenylpropylamine derivatives for the treatment of ophthalmic diseases and disorders” (Acucela Inc., priority 2013, dated 2015):

Experiments:
[1] = system: retinal isomerase activity (recovery of 11-cis-retinal); assay: Comparative in vivo murine isomerase assay, dose response; set-up: species or system BALB/c mice; details: 2 hours, peak area units of 11-cis-retinal oxime
Experimental: (§1) All test compounds were stored at room temperature, dessicated.
On the day prior to dose administration compound A and compound D were weighed into new empty glass vials. The compounds were dissolved in di-water at the concentration of 0.833 mg/mL compound A and 0.892 mg/mL compound D, serially diluted into various concentrations, and stored overnight at 4° C.
56 Male BALB/c mice (Charles River Laboratories) were used for this study. The mice were approximately 8 weeks at the initiation of dosing with an average body weight of 24 grams.
The day prior to dose administration 56 BALB/c mice were placed into a dark room and dark adapted for a minimum of 12 hours prior to dose administration. The mice were maintained in the dark for the duration of the study.
(§2) Each animal was removed from its cage and dosed accordingly to the study design in Table 4 (see below). Each animal was administered 0.1 mL of the appropriate compound or vehicle via oral gavage using a 1 mL syringe fitted with a 23 gauge oral gavage needle. Two hours following dose administration, animals were removed from the dark and exposed to 5000 Lux white light for 10 minutes to photobleach their eyes. Following the completion of the photobleach the animals were returned to the dark for 2 hours to allow for the regeneration of 11-cis-retinal in the eyes. Two hours after photobleaching each animal was euthanized with carbon dioxide followed by cervical dislocation, in the dark under red light. The light control group was euthanized immediately following photobleaching. Immediately following the cervical dislocation both eyes of each animal were removed and transferred into separate tubes, flash frozen in liquid nitrogen and stored in the dark at −80° C. until processing and analysis.
(§3) All sample processing procedures were performed in the dark under red light.
Extracted samples were analyzed using an Agilent 1100 HPLC system according to the procedure outlined in Table 6 (see below)
(§4) HPLC analysis of the eyes measures the peak area units of the 110cis-Ral-Oxime_syn. Signal.
(§5) Data analysis % inhibition (drug vs. recovery control). % control (drug vs. light control), and One-way ANOVA (followed by Tukey's Multiple Comparison) were performed using peak area units and performed by Prism software. Data are represented as mean and standard deviation.

[2] = system: regeneration of 11-cis-retinal; assay: Single dose time course in the in vivo isomerase assay at 0.3 mg/kg; set-up: species or system BALB/c mice; details: peak area units
Experimental: as §1
The compounds were dissolved in di-water at the concentration of 0.068 mg/mL and stored overnight at 4° C.
52 Male BALB/c mice (Charles River Laboratories) were used for this study. The mice were approximately 8 weeks at the initiation of dosing with an average body weight of 23 grams.
The day prior to dose administration 52 BALB/c mice were placed into a dark room and dark adapted for a minimum of 12 hours prior to dose administration. The mice were maintained in the dark for the duration of the study.
as §2, with “Table 10” for “Table 4”, “appropriate test article” for “appropriate compound”, “vehicle orally” for “vehicle via oral gavage”, “needle. At 2, 4, 6, 8, 16 or 24” for “needle. Two”
as §3
Extracted samples were analyzed using an Agilent 1100 HPLC system according to the procedure outlined in Table 12 (see below)
as §4, §5

SMILES	Mean Diff., Tukey's Multiple Comparison Test, Vehicle vs. compound ([1]; 0.03 mg/kg)	Mean Diff., Tukey's Multiple Comparison Test, Vehicle vs. compound ([1]; 0.1 mg/kg)	Mean Diff., Tukey's Multiple Comparison Test, Vehicle vs. compound ([1]; 0.3 mg/kg)	Mean Diff., Tukey's Multiple Comparison Test, Vehicle vs. compound ([1]; 0.5 mg/kg)	Mean Diff., Tukey's Multiple Comparison Test, Vehicle vs. compound ([1]; 1 mg/kg)	Mean Diff., Tukey's Multiple Comparison Test, Vehicle vs. compound ([1]; 3 mg/kg)	Mean Diff., Tukey's Multiple Comparison Test, Vehicle vs. time point ([2]; 2 Hr)	Mean Diff., Tukey's Multiple Comparison Test, Vehicle vs. time point ([2]; 4 Hr)	Mean Diff., Tukey's Multiple Comparison Test, Vehicle vs. time point ([2]; 6 Hr)	Mean Diff., Tukey's Multiple Comparison Test, Vehicle vs. time point ([2]; 8 Hr)	Mean Diff., Tukey's Multiple Comparison Test, Vehicle vs. time point ([2]; 16 Hr)	Mean Diff., Tukey's Multiple Comparison Test, Vehicle vs. time point ([2]; 24 Hr)
NCCC(O)c1cccc(OCC2CCCCO2)c1 (stereo not drawn) [compound D, reference compound]	−0.9	−4.0	−0.4	7.0	11.8	16.9	6.3	−0.88	5.8	2.6	−2.0	5.0
NCC[C@@H](O)c1cccc(OCC2CCOCC2)c1 [Example 1]	−7.4	−1.7	15.6	16.7	16.9	17.7	46.9	42.3	26.9	9.7	0.73	2.0
